From patent publication EP0969089A1, “Phytase formulation” (F. HOFFMANN-LA ROCHE AG, priority 1998, dated 2000)
At least one compound was matched to its structure with a doubt left.

Chains of the proteins cited; added tags and fusions are not shown. Residues count along the entry.
UniProt O00092, 27-465: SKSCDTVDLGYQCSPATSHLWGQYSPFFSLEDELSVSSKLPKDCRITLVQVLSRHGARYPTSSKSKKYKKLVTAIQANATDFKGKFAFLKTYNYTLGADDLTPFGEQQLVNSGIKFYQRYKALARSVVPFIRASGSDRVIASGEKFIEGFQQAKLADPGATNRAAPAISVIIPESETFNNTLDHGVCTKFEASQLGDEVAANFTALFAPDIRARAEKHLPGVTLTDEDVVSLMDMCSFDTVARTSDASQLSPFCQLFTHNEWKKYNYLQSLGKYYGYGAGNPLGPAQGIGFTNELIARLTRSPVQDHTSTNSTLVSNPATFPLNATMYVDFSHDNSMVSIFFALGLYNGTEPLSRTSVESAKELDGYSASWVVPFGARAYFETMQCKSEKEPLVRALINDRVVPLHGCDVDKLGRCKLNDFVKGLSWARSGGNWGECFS

Molecular target: T1, A. fumigatus phytase (Aspergillus fumigatus, UniProt O00092)
T1 construct: made in house; host or cells: Hansenula polymorpha
Type: biochemical
Experimental: After incubation of the sample for 15 mm at the desired temperature (e.g. at 60 or 65 °C for the screening of additive effects), the reaction was stopped by addition of 0.5 ml 15% trichloroacetic acid. Determination of liberated inorganic phosphate was performed by standard methods.
Disodium malonate, succinate and glutarate were dissolved at concentrations of 5, 10 and 25% and phytase activity was measured after preincubation of enzyme plus additive and substrate (see above) at the following temperatures: 37, 45, 50, 55, 60, 65, 70, 75, 80, and 85 °C. In the same way, the temperature dependence of the activity of different phytases in the presence of 25% xylitol and ribitol was tested. It should be noted that the concentration of the additives was reduced by half after substrate addition.

For O=C(O)CCCC(=O)O [glutarate], the “temperature at which considerable activity still being detected” value (dicarboxylate at 25% (12.5% final concentration in the activity assay)) was 65 °C and the “increase in phytase activity measured at 37 °C” value (dicarboxylates) was “minor effects”.
